From PMC8464836 (Biomolecules, 2021)

Assay: PAMPA assay (Polar Brain Lipid membrane)
Settings: BBB permeability class predicted from PAMPA Pe

## NS(=O)(=O)c1cc(C(=O)O)c(NCc2ccco2)cc1Cl [Furosemide, reference compound]
  CNS (+/−): CNS − (CNS − (low BBB permeability predicted), Pe (10^−6 cm∙s^−1) < 2.0)
